# Literature values as cited in publication PMC4184567, “Glucuronidation of drugs in humanized UDP-glucuronosyltransferase 1 mice: Similarity with glucuronidation in human liver microsomes” (Pharmacology Research & Perspectives, 2013).
# What was measured:
# mouse liver microsomes = conditions: mice; ref Court et al. [2003]; Shiratani et al. [2008]; cited from earlier work
# human liver microsomes = conditions: humans; ref Court et al. [2003]; Shiratani et al. [2008]; cited from earlier work
structure (smiles),measurement,setting,value
CN1CC[C@]23c4c5ccc(O)c4O[C@H]2[C@@H](O)C=C[C@H]3[C@H]1C5 [morphine],Vmax of morphine 3-glucuronidation,mouse liver microsomes,19 nmol/min/mg
same,Vmax of morphine 3-glucuronidation,human liver microsomes,2.7 nmol/min/mg
